At least one compound was matched to its structure with a doubt left.
Tested on: Primary human lung fibroblasts
Assay: α-SMA positive cell (myofibroblast) count in primary lung fibroblast strains from ILD patients
Format: cell-based
Conditions: second strain; second experiment, 10 days, 1 μM and 10 μM
Excerpt: Primary human lung fibroblasts were derived from patients with ILD (Idiopathic Pulmonary Fibrosis or Chronic Hypersensitivity Pneumonitis). Patients had clinical, functional and radiologic features which fulfil the diagnostic criteria for an ILD. Briefly, they had progressive dyspnea, bilateral reticulonodular images on chest roentgenogram, restrictive lung functional impairment, with decreased lung volumes and compliance, and hypoxemia at rest that worsened with exercise. The methods used to isolate and culture the lung fibroblasts and count cells are described in Wang et al, Am. J. Physiol. Lung 277:L1158-1164 (1999). In brief, lung fibroblasts were isolated by trypsin digestion of tissues minced to 1 mm^2 fragments. Fibroblast/myofibroblast strains were established in Dulbecco's modified Eagle's medium (or in Hams F-12 medium) supplemented with 10% fetal calf serum, 200 U/ml penicillin, and […] streptomycin, and were cultured in 24-well plates. All cells were cultured at 37° C. in 95% air-5% carbon dioxide. For these experiments, 2 strains were used. In order to quantify myofibroblast numbers, the myofibroblast marker alpha-smooth muscle actin (α-SMA) was measured. […] The cells were exposed to pioglitazone at 3 μM or drug vehicle for 3 days, after which the number of α-SMA positive cells was quantified (sample size 24) as a percentage of total cells. […]

## CCc1ccc(CCOc2ccc(CC3SC(=O)NC3=O)cc2)nc1 (stereo not shown) [pioglitazone]
  changes in total cell numbers: no significant changes
